The list shows a part of the results.

Chains of the proteins cited; added tags and fusions are not shown. Lines headed by an entry give the natural chain unless they say otherwise; changes in a name come on top.
UniProt Q9NRZ9: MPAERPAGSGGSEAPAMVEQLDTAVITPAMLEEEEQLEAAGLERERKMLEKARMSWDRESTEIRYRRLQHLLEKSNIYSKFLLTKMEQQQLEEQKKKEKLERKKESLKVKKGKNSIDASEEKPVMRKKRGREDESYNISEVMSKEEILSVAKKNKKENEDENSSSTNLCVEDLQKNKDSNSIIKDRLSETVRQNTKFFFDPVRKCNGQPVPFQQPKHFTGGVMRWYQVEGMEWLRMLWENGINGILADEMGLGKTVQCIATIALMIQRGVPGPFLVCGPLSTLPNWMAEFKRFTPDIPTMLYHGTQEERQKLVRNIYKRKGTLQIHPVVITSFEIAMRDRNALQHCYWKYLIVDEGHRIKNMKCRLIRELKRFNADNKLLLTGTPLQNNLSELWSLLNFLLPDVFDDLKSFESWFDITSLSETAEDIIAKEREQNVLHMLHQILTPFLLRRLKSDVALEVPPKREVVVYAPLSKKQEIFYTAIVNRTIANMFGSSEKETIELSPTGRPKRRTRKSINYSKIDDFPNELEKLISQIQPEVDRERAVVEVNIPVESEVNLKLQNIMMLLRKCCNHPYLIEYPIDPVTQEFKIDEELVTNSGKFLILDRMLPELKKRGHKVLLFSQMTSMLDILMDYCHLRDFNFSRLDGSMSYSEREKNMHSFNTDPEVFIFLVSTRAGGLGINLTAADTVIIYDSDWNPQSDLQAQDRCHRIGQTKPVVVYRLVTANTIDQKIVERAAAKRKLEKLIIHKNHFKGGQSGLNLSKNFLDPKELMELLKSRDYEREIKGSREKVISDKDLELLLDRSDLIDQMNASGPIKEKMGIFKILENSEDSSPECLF
UniProt Q8NCD3, whole entry, looked up: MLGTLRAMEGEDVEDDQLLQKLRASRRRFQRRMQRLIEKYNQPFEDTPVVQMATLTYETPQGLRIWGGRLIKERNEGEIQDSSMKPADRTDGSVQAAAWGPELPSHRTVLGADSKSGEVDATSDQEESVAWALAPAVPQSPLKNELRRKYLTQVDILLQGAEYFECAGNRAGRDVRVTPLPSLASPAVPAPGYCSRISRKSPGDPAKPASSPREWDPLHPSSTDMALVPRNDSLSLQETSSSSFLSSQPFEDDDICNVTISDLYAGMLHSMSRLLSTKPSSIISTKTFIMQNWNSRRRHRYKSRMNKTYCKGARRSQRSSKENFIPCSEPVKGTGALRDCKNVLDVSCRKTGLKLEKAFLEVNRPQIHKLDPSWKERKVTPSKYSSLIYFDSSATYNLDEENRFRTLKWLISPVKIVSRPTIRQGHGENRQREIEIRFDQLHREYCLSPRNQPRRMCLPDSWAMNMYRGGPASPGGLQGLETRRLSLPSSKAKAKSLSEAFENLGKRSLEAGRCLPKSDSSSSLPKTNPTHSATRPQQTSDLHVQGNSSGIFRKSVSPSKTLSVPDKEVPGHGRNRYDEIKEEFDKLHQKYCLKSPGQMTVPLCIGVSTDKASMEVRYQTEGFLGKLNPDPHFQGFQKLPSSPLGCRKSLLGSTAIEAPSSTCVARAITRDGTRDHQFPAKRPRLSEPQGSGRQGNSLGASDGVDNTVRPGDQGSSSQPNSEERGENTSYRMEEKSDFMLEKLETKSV
UniProt Q96ED9: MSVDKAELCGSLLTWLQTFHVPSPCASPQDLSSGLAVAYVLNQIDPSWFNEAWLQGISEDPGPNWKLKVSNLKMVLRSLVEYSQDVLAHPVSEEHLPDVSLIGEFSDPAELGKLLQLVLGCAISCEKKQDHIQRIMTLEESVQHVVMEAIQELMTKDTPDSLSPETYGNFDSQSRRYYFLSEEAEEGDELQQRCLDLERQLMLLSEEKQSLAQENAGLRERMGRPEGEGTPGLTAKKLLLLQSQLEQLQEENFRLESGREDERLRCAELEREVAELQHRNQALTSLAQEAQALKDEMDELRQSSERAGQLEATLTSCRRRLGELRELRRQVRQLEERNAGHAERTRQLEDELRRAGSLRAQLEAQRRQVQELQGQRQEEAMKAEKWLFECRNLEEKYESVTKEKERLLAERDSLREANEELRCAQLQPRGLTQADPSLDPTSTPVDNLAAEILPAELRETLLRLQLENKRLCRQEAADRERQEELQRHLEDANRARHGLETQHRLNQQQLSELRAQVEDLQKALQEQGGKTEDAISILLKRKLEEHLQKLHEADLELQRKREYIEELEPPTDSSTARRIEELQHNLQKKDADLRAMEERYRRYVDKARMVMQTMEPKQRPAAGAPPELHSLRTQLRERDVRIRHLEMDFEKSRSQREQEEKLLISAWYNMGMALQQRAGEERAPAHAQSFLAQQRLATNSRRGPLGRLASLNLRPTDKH
UniProt Q9BYK8: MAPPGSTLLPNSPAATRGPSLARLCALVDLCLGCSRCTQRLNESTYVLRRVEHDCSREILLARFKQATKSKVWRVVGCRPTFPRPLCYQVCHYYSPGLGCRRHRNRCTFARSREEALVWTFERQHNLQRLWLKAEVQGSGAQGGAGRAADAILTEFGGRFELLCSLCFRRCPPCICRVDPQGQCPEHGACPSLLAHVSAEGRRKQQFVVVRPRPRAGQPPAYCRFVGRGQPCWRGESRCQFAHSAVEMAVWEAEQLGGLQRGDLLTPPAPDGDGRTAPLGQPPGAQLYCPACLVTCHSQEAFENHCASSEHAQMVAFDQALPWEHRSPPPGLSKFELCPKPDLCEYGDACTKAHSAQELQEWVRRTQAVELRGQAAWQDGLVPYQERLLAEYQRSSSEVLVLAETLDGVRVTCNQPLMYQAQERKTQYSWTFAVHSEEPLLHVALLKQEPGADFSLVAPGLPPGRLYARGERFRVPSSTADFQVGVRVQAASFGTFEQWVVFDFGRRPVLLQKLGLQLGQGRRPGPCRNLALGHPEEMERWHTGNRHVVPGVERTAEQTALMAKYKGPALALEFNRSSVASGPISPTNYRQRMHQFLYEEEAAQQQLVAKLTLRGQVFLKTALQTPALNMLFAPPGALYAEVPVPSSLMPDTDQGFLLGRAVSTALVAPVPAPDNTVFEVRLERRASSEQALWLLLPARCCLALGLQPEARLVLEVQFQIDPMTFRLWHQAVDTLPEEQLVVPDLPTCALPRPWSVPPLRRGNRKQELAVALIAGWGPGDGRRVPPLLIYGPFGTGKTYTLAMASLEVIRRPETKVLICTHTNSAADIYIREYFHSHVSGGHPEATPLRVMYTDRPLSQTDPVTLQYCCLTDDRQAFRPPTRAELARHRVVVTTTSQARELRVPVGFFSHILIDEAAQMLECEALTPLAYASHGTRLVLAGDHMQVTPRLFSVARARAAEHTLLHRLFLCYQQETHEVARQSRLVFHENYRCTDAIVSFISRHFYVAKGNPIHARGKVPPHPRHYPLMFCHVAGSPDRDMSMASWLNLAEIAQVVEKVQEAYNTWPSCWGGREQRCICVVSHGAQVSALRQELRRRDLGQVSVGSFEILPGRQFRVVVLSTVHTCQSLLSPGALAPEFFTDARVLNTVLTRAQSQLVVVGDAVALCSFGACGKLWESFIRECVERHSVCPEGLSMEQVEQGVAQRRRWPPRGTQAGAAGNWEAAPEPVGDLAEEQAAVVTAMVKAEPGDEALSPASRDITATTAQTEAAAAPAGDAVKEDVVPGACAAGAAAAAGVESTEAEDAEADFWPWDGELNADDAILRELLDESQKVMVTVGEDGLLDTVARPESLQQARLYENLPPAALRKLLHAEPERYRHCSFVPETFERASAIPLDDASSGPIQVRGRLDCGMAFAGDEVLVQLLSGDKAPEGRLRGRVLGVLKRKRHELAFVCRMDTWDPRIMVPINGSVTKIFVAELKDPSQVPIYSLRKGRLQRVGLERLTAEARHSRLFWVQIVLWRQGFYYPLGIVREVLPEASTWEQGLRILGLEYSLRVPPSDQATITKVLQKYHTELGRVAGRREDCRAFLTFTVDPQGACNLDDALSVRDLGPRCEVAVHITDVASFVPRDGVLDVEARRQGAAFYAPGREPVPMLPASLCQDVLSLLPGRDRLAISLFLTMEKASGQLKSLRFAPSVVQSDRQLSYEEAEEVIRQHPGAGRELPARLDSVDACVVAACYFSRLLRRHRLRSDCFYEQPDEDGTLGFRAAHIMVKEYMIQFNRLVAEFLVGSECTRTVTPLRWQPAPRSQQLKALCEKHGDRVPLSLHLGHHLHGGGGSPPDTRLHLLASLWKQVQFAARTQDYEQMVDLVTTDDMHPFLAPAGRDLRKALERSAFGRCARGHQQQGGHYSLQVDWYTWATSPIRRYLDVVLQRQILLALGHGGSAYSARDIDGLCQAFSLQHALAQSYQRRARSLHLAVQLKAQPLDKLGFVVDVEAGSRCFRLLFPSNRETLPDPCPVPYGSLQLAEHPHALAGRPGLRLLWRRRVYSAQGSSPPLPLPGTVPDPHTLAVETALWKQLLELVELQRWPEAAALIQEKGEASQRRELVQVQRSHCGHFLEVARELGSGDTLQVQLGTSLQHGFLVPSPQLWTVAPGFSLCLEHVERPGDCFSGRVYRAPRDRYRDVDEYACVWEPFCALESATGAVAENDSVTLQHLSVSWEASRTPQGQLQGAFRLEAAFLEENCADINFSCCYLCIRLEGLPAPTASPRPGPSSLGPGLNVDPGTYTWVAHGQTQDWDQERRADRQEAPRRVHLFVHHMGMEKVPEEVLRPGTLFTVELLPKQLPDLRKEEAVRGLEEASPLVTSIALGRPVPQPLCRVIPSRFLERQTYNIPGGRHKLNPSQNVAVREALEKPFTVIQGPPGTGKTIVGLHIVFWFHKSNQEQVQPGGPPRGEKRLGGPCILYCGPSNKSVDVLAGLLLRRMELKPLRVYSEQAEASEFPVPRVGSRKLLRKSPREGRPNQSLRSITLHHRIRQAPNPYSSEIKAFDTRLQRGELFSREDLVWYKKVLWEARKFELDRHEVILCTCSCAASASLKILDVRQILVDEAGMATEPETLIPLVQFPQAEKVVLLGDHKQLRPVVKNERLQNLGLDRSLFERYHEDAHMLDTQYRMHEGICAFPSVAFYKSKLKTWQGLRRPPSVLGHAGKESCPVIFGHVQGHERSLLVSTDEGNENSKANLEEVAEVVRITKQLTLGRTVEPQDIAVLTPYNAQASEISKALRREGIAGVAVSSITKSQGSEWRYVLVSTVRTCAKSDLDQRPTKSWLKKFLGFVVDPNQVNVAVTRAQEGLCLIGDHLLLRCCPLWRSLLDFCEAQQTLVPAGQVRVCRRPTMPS
UniProt Q15011: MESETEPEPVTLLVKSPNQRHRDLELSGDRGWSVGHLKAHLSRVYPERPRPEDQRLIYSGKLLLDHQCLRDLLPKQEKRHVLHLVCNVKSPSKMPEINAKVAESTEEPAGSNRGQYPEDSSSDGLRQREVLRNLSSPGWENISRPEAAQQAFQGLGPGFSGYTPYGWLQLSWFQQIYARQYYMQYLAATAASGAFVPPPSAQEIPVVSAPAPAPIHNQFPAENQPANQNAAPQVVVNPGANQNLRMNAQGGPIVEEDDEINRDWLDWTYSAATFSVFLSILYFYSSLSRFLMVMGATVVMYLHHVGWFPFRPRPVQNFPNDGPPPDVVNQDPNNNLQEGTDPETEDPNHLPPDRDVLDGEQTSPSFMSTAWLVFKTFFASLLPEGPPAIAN
UniProt P50135: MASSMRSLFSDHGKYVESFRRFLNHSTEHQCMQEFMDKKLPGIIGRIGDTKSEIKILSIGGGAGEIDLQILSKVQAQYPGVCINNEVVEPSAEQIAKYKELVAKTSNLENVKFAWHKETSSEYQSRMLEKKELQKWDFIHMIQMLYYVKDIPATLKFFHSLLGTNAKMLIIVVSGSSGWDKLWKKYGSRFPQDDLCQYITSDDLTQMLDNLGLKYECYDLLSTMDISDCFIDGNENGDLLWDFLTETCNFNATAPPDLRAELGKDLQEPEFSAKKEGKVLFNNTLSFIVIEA
UniProt Q9NQG7: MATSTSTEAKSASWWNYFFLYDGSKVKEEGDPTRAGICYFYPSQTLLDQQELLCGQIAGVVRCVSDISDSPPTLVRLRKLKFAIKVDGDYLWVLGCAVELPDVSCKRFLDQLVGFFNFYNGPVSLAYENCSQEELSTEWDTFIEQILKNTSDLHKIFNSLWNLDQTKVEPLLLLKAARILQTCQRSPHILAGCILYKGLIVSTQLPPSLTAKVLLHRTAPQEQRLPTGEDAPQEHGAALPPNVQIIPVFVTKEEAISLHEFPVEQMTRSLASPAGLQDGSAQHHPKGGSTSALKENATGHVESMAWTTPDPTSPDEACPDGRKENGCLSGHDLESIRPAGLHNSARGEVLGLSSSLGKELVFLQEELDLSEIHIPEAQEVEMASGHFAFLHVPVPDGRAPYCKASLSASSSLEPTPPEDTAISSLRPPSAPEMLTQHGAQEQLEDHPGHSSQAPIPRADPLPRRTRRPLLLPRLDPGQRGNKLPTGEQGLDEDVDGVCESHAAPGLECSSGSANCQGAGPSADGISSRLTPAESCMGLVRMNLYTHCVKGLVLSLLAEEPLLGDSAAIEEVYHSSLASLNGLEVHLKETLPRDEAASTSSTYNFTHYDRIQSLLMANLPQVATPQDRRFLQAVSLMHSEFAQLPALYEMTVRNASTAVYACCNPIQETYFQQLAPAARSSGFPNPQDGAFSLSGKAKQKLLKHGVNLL

Compound in one test: COc1cc(Nc2ncc3c(n2)-c2ccc(Cl)cc2C(c2c(F)cccc2OC)=NC3)ccc1C(=O)O [alisertib]
The test can be described thus: log2 fold change, soluble protein after heating vs DMSO (PISA); higher = thermal stabilisation; K562 lysate, 10 uM; active = over 0.2 and 3.5 SD of the protein, either way, in both replicates (recomputed). In a few lines: (§1)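 Quantification was by TMTpro 16plex LC-MS/MS with equalised channel sums, applied to the supernatant after 21,000xg for 90 min. Samples were crude K562 extract at 1 mg/mL protein in PBS pH 7.4 with 1 mM MgCl2, treated with 10 μM compound for 30 min, heated for 3 min across 48°C-58°C, pooled and brought to 0.5% NP-40 at 4°C. Values are log-two fold changes in thermal stability relative to solvent controls, from duplicates.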
On to HELLS (UniProt Q9NRZ9), for which the log2 fold change is inactive: -0.042.

Regarding HIGD2A (UniProt Q9BW72), the log2 fold change was inactive: -0.078.

Consider HMGN5 (UniProt Q5JSK9), for which the log2 fold change was inactive: 0.049.

With HGFAC (UniProt Q04756), the log2 fold change is inactive: -0.114.

HINFP (UniProt Q9BQA5): the log2 fold change is inactive: 0.118.

As for HJURP (UniProt Q8NCD3), the log2 fold change is inactive: -0.072.

Consider HOOK2 (UniProt Q96ED9), for which the log2 fold change was inactive: -0.069.

HPS6 (UniProt Q86YV9): the log2 fold change is inactive: 0.066.

For HECW2 (UniProt Q9P2P5), the log2 fold change is inactive: 0.114.

With HNRNPD (UniProt D6RF44), the log2 fold change was inactive: -0.006.

In the case of HSD3B7 (UniProt Q9H2F3), the log2 fold change is inactive: -0.142.

HRAS (UniProt P01112): the log2 fold change was inactive: 0.074.

For the target HELZ2 (UniProt Q9BYK8), the log2 fold change was inactive: -0.093.

Consider HERPUD1 (UniProt Q15011), for which the log2 fold change is inactive: -0.165.

Compound in the next test: COc1cc2nc(-c3cc(F)ccc3O)nc(N[C@@H]3CNC[C@H]3C(C)(C)O)c2cc1OC
Described as above. In a few lines: as §1
As for HNRNPL, A0A3B3ITJ4, the log2 fold change was inactive: 0.032.

With HOMER3 (UniProt Q9NSC5), the log2 fold change was inactive: 0.069.

Turning to HMGN5 (UniProt Q5JSK9), the log2 fold change is inactive: 0.055.

With HJURP (UniProt Q8NCD3), the log2 fold change was inactive: -0.021.

HOOK2 (UniProt Q96ED9): the log2 fold change was inactive: 0.126.

Regarding HNMT (UniProt P50135), the log2 fold change is inactive: -0.102.

Regarding HPS4 isoform 4 (UniProt Q9NQG7), the log2 fold change is inactive: -0.108.

HRAS (UniProt P01112): the log2 fold change is inactive: -0.035.

Compound in a further test: COc1cc2ncnc(Nc3ccc(F)c(Cl)c3)c2cc1OCCCN1CCOCC1 [gefitinib]
Described as above. In a few lines:
as §1
With HELLS (UniProt Q9NRZ9), the log2 fold change is inactive: -0.042.

For HIGD2A (UniProt Q9BW72), the log2 fold change is inactive: 0.055.

Regarding HMGN5 (UniProt Q5JSK9), the log2 fold change was inactive: 0.063.

As to HGFAC (UniProt Q04756), the log2 fold change is inactive: -0.04.

Regarding HINFP (UniProt Q9BQA5), the log2 fold change is inactive: 0.035.

In the case of HJURP (UniProt Q8NCD3), the log2 fold change is inactive: 0.042.

Take HOOK2 (UniProt Q96ED9): the log2 fold change was inactive: -0.021.

Regarding HPS6 (UniProt Q86YV9), the log2 fold change is inactive: -0.097.

For HECW2 (UniProt Q9P2P5), the log2 fold change is inactive: 0.117.

Consider HNRNPD (UniProt D6RF44), for which the log2 fold change was inactive: -0.014.

For HSD3B7 (UniProt Q9H2F3), the log2 fold change is inactive: -0.059.

Take HRAS (UniProt P01112): the log2 fold change was inactive: 0.046.

HELZ2 (UniProt Q9BYK8): the log2 fold change was inactive: -0.032.

Regarding HERPUD1 (UniProt Q15011), the log2 fold change is inactive: 0.028.

Source of the values: the supplement of paper PMC10849652.
